The list shows a part of the results.
How the values were obtained:
Test in all cases: log2 fold change, soluble protein after heating vs DMSO (PISA); higher = thermal stabilisation; K562 lysate, 10 uM; active = over 0.2 and 3.5 SD of the protein, either way, in both replicates (recomputed)
[1] = compound: CS(=O)(=O)CCNCc1ccc(-c2ccc3ncnc(Nc4ccc(OCc5cccc(F)c5)c(Cl)c4)c3c2)o1 [lapatinib]
How it was run: (§1)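 K562 pellets were dounce-homogenised in PBS pH 7.4 containing 1 mM MgCl2, and the crude extract, at 1 mg/mL protein, was exposed to 10 μM compound for 30 min. Aliquots were heated for 3 min across 48°C-58°C, pooled, brought to 0.5% NP-40 at 4°C and spun at 21,000xg for 90 min, with the supernatant taken as soluble protein. TMTpro 16plex LC-MS/MS with equalised channel sums quantified that protein. Values are log-two fold changes in thermal stability relative to solvent controls, taken from duplicates.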

Sequences of proteins named here, by UniProt entry; tags and fusion partners are left off. A change or cut given only in a name is not applied to a line headed by its entry.
UniProt Q86Y37: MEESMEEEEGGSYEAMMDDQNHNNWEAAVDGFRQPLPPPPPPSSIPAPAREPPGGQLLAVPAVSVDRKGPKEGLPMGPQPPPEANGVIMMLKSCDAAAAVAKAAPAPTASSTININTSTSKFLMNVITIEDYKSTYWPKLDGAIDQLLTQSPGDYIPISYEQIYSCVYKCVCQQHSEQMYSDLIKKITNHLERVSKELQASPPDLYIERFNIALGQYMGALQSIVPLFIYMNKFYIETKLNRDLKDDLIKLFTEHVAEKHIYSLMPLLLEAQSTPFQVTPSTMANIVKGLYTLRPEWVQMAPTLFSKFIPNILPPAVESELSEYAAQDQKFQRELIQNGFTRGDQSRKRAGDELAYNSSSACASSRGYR
UniProt Q7Z4R8: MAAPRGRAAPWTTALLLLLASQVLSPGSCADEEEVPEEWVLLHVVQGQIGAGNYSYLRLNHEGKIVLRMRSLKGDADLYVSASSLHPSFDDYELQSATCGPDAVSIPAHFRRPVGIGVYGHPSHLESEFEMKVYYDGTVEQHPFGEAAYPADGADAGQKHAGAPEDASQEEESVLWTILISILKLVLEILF
UniProt Q9BSJ5: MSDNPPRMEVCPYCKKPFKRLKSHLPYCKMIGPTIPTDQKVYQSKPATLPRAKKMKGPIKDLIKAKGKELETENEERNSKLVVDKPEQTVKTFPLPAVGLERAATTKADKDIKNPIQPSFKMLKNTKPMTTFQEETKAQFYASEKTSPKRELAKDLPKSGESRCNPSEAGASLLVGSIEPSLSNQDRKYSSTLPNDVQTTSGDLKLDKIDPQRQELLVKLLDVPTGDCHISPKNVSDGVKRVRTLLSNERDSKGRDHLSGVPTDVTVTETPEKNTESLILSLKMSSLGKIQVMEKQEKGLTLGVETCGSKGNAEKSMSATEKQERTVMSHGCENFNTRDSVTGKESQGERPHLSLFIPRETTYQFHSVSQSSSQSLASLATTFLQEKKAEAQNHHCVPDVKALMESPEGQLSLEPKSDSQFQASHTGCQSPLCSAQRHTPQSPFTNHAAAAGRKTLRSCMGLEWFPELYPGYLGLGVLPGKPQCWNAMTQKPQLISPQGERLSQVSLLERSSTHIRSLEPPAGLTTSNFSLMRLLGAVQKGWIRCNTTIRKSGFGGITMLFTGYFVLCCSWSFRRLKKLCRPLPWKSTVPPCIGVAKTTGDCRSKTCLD
UniProt Q96LW7: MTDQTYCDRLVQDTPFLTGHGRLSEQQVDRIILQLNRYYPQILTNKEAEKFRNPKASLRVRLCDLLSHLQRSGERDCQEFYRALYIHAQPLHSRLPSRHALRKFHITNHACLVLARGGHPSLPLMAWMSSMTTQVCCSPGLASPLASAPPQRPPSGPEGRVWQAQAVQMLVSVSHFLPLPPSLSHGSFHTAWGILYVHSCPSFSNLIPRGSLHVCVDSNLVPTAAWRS
UniProt Q6ZRI6: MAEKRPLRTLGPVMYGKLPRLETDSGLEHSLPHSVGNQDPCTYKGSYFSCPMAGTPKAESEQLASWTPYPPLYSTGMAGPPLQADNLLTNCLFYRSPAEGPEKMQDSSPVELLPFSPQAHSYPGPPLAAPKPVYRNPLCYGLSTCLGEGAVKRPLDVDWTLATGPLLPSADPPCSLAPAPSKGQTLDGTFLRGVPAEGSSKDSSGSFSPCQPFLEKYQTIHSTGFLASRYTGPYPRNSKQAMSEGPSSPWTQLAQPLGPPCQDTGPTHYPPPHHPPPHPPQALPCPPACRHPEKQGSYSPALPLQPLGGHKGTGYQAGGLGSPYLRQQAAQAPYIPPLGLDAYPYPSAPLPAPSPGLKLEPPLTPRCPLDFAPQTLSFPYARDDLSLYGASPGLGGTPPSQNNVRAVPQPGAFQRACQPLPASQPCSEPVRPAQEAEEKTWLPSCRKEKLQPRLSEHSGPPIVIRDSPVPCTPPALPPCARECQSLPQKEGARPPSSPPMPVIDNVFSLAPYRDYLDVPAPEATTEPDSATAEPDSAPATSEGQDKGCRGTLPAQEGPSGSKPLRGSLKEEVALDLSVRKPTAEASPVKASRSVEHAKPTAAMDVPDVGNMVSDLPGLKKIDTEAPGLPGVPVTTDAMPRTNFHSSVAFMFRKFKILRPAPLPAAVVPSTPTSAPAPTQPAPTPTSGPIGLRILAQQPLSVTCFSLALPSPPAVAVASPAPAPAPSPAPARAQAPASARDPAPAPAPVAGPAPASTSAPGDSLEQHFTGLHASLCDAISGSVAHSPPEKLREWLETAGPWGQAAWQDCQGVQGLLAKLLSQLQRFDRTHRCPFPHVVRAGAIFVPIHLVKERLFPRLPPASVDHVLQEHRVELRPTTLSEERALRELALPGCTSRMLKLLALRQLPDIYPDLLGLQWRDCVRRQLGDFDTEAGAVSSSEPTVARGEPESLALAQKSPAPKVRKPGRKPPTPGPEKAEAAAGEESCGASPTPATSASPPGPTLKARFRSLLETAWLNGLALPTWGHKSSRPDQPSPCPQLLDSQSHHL
UniProt Q13137: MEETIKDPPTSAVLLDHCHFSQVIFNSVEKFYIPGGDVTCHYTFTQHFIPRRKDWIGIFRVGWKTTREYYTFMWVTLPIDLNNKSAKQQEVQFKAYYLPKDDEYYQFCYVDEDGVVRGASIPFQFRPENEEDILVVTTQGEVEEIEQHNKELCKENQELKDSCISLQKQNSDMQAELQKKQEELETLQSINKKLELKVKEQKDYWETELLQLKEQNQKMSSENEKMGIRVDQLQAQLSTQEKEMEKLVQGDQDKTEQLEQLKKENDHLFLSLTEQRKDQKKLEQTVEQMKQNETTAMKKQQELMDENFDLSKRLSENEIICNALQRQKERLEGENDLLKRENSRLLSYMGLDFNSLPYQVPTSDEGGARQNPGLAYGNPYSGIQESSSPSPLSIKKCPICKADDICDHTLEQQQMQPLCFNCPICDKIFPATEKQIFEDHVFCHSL
UniProt Q16581: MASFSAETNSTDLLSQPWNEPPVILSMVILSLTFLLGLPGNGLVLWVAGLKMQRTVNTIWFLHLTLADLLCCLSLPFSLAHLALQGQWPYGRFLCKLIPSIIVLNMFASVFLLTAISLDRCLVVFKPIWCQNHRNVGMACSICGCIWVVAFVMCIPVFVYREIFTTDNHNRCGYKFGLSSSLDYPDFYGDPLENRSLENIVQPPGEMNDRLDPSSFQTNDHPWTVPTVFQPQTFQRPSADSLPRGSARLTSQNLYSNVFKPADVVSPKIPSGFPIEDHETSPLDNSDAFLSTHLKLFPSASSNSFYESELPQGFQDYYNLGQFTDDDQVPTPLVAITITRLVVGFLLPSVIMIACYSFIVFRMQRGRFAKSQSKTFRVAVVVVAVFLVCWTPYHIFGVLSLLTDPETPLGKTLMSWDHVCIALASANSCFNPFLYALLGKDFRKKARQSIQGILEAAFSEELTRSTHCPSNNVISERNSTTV
UniProt Q86VG3: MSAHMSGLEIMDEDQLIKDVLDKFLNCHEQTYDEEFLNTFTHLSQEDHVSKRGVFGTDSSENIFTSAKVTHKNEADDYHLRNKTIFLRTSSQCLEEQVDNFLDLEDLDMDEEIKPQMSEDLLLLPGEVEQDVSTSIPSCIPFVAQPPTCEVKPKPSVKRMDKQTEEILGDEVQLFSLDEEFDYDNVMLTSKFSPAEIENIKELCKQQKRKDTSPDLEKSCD
UniProt Q504U0: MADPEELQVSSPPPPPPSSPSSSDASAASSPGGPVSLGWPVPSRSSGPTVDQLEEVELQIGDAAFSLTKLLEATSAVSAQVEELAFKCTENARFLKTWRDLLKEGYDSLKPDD
UniProt Q5U649: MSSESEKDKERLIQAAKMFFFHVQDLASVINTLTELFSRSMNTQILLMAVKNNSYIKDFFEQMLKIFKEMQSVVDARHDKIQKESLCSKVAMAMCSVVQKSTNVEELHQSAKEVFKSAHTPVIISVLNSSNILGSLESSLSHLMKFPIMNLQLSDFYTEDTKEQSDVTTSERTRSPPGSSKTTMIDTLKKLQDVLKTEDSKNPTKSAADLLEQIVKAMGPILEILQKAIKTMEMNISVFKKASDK
UniProt P0DMB2: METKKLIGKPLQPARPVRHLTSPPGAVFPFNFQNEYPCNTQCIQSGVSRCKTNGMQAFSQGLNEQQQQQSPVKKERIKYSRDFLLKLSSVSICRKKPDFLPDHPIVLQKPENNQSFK
UniProt Q96GV9: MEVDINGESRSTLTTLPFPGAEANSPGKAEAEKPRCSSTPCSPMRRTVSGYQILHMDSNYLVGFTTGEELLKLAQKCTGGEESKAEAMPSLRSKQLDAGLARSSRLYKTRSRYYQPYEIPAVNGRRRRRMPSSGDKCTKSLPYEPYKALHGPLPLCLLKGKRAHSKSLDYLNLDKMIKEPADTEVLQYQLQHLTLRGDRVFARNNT
UniProt Q08AD1: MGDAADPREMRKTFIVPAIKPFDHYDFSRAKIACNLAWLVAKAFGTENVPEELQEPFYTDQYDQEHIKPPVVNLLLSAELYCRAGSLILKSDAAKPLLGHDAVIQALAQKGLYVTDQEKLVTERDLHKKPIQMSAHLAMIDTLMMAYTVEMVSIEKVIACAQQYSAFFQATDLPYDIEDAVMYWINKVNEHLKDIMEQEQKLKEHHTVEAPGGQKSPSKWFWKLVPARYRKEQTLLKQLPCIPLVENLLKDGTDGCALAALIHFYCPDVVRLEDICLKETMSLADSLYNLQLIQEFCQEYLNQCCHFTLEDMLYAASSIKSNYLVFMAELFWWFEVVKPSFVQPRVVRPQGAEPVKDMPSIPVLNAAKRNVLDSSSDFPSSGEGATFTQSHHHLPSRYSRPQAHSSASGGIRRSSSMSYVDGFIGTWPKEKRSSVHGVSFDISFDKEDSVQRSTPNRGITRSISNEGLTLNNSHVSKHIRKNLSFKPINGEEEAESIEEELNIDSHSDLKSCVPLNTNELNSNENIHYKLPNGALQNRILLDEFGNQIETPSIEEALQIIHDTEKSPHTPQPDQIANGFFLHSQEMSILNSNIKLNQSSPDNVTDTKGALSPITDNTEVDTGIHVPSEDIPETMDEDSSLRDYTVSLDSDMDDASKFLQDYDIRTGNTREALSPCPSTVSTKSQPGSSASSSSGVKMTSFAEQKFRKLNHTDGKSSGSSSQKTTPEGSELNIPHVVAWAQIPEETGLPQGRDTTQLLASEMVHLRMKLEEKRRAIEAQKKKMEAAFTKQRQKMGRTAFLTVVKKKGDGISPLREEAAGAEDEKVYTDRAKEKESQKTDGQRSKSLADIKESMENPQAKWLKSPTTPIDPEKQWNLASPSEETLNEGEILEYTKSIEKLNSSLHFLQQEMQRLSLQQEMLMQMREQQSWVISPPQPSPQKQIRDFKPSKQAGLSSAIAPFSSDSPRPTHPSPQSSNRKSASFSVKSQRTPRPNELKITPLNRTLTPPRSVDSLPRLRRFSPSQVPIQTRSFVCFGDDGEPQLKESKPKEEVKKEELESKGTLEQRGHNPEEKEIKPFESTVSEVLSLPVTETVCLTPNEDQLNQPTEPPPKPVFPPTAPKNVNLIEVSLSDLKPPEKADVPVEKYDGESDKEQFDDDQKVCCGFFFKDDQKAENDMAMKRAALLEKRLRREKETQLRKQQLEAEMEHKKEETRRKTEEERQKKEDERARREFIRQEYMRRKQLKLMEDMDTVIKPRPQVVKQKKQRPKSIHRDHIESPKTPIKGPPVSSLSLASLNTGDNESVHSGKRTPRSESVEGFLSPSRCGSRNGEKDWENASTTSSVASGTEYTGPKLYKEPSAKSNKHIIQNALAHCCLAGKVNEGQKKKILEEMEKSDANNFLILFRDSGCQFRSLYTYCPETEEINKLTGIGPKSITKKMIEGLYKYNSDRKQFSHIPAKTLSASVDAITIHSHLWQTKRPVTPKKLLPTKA
UniProt Q0VDD7: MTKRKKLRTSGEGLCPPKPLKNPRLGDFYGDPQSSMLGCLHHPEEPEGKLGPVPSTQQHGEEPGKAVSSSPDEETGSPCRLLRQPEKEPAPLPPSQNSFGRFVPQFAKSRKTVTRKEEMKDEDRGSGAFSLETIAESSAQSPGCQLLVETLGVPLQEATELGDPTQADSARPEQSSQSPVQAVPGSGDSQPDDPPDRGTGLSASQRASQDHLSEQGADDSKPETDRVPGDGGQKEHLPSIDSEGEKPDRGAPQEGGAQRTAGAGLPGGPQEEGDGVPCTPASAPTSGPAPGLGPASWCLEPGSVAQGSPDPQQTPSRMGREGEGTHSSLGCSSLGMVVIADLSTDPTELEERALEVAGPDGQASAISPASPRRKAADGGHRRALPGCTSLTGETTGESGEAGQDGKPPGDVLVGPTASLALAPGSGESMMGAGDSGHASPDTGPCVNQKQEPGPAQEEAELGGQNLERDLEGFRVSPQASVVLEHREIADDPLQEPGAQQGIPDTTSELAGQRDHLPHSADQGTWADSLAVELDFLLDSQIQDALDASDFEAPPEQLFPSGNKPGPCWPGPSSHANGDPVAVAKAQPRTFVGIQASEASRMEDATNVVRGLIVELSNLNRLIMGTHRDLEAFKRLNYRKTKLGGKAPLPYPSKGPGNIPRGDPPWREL
UniProt Q99622: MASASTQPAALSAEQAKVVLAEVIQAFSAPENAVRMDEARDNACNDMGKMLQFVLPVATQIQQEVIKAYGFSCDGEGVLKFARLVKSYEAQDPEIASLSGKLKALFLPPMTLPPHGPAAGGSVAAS

[2] = compound: CS(=O)(=O)N1CCN(Cc2cc3nc(-c4cccc5[nH]ncc45)nc(N4CCOCC4)c3s2)CC1 [pictilisib]
How it was run: as §1

[3] = compound: C[C@@H](Oc1cc(-c2cnn(C3CCNCC3)c2)cnc1N)c1c(Cl)ccc(F)c1Cl [crizotinib]
How it was run: as §1

[4] = compound: C[C@H](C1=CC=C(C=C1)C(=O)NC2=C3C=CNC3=NC=C2)N
How it was run: as §1

[5] = compound: C[C@H](Nc1ncnc2nc[nH]c12)c1cc2cccc(Cl)c2c(=O)n1-c1ccccc1 [duvelisib]
How it was run: as §1

[6] = compound: Cc1cc(Nc2cc(CN3CCOCC3)c3nc(C)c(Cc4ccc(Cl)cc4F)n3n2)n[nH]1 [gandotinib]
How it was run: as §1

[7] = compound: Cc1ccc(-n2nc(C(C)(C)C)cc2NC(=O)Nc2ccc(OCCN3CCOCC3)c3ccccc23)cc1 [doramapimod]
How it was run: as §1

[8] = compound: Cc1ccc(NC(=O)c2ccc(CN3CC[C@H](N(C)C)C3)c(C(F)(F)F)c2)cc1Nc1nccc(-c2cncnc2)n1 [bafetinib]
How it was run: as §1

[9] = compound: Cc1cccc(CC(=O)N2CCc3c2ccc(-c2cn(C)c4ncnc(N)c24)c3F)n1
How it was run: as §1

[10] = compound: Cc1cc(Nc2cc(N3CCN(C)CC3)nc(Sc3ccc(NC(=O)C4CC4)cc3)n2)n[nH]1 [tozasertib]
How it was run: as §1

Measured: log2 fold change

C3orf33 (UniProt Q6P1S2)
inactive: [1] 0.09 | [2] 0.059 | [3] -0.051 | [4] -0.541 | [5] 0.101 | [6] 0.14 | [7] -0.025 | [8] -0.046 | [9] 0.263

C22orf39 (UniProt Q6P5X5)
inactive: [1] -0.173 | [2] -0.014 | [4] 0.022 | [5] 0.043 | [6] -0.003 | [10] 0.023 | [8] -0.089 | [9] 0.082

CACUL1 (UniProt Q86Y37)
inactive: [1] -0.26 | [3] 0.037 | [4] 0.061 | [5] 0.044 | [6] -0.151 | [10] 0.094 | [7] 0.029 | [9] 0.08

C6orf120 (UniProt Q7Z4R8)
inactive: [1] -0.113 | [2] 0.032 | [4] -0.03 | [5] -0.036 | [6] -0.037 | [8] 0.045 | [9] -0.169

CAPNS1 (UniProt U3KPR7)
inactive: [1] -0.052 | [2] -0.083 | [8] -0.194

C12orf73 (UniProt Q69YU5)
inactive: [1] 0.099 | [2] -0.019 | [3] 0.019 | [4] 0.008 | [5] 0.055 | [6] 0.001 | [7] 0 | [8] 0.087 | [9] -0.034

3 successive records out of the list so far, for reference:
CACUL1 (UniProt Q86Y37)
inactive: [1] -0.26 | [3] 0.037 | [4] 0.061 | [5] 0.044 | [6] -0.151 | [10] 0.094 | [7] 0.029 | [9] 0.08

C6orf120 (UniProt Q7Z4R8)
inactive: [1] -0.113 | [2] 0.032 | [4] -0.03 | [5] -0.036 | [6] -0.037 | [8] 0.045 | [9] -0.169

CAPNS1 (UniProt U3KPR7)
inactive: [1] -0.052 | [2] -0.083 | [8] -0.194

Continuation.

CAPN1 (UniProt E9PLX0)
inactive: [1] -0.084 | [3] 0.033 | [4] 0.157 | [6] 0.033 | [10] -0.064 | [7] -0.086 | [9] 0.13

C4BPA (UniProt P04003)
inactive: [1] -0.035 | [3] 0.089 | [4] -0.051 | [5] -0.117 | [6] 0.084 | [7] 0.056 | [9] 0.034

C17orf80 (UniProt Q9BSJ5)
inactive: [1] 0.029 | [3] -0.07 | [4] -0.117 | [6] 0.101 | [7] -0.025 | [9] 0.192

CABIN1 (UniProt Q9Y6J0)
inactive: [1] -0.026 | [2] -0.006 | [4] -0.138 | [5] -0.094 | [6] -0.036 | [10] 0.062 | [8] -0.155 | [9] 0.124

C17orf53 (UniProt Q8N3J3)
inactive: [3] -0.056 | [5] 0.221 | [7] -0.014

CARD19 (UniProt Q96LW7)
inactive: [3] -0.022 | [7] -0.021

C1RL (UniProt Q9NZP8)
inactive: [4] -0.067 | [6] -0.032 | [10] -0.107 | [9] -0.051

CAP1 isoform 2 (UniProt Q01518)
inactive: [2] -0.018 | [3] -0.056 | [4] -0.03 | [5] -0.012 | [6] 0.075 | [7] 0.072 | [8] -0.027 | [9] -0.087

CAD (UniProt H7BZB3)
inactive: [4] 0.069 | [6] 0.036 | [10] -0.062 | [9] 0.057

C15orf39 (UniProt Q6ZRI6)
inactive: [2] -0.04 | [3] 0.043 | [4] 0.025 | [5] -0.049 | [6] -0.076 | [10] 0.097 | [7] 0 | [8] 0.19 | [9] -0.055

C2CD2 (UniProt Q9Y426)
inactive: [2] -0.061 | [3] -0.087 | [4] 0.012 | [5] 0.098 | [6] -0.044 | [10] 0.131 | [7] 0.17 | [8] -0.016 | [9] 0.009

BTN3A3 (UniProt O00478)
inactive: [2] -0.051 | [3] 0.05 | [4] -0.029 | [5] 0.074 | [6] 0.019 | [7] 0.331 | [8] -0.063 | [9] 0.089

CALCOCO2 isoform 5 (UniProt Q13137)
inactive: [4] -0.509 | [6] 0.102 | [9] 0.273

C3AR1 (UniProt Q16581)
inactive: [2] -0.023 | [3] 0.02 | [4] -0.025 | [6] 0.043 | [7] -0.01 | [8] 0.111 | [9] 0.099

C6orf136 isoform 4 (UniProt Q5SQH8)
inactive: [1] 0 | [5] 0.008 | [10] -0.004

C2orf88 (UniProt Q9BSF0)
inactive: [3] 0.051 | [4] 0.051 | [6] -0.037 | [7] -0.069 | [9] -0.218

C1orf159 isoform 4 (UniProt Q96HA4)
inactive: [4] 0.005 | [5] 0.272 | [6] 0.036 | [10] -0.059 | [9] -0.041

CACNA1C isoform 2 (UniProt Q13936)
inactive: [1] 0.001 | [4] -0.412 | [6] 0.151 | [9] -0.147

C9orf85 isoform 1 (UniProt Q96MD7)
inactive: [2] 0.113 | [4] 0.004 | [5] 0.017 | [6] -0.001 | [8] -0.017 | [9] -0.003

C9orf16 (UniProt Q9BUW7)
inactive: [3] 0.041 | [4] 0.105 | [5] -0.048 | [6] 0.001 | [10] -0.197 | [7] -0.035 | [9] -0.192

C5orf24 (UniProt Q7Z6I8)
inactive: [3] -0.015 | [7] -0.013

C6orf62 (UniProt Q9GZU0)
inactive: [3] -0.239 | [4] 0.233 | [5] -0.2 | [6] -0.16 | [7] 0.007 | [9] -0.299

BUD13 (UniProt Q9BRD0)
inactive: [2] 0.104 | [3] -0.044 | [4] -0.053 | [5] 0.08 | [6] 0.045 | [10] 0.008 | [7] 0.014 | [8] -0.134 | [9] 0.114

C11orf24 (UniProt Q96F05)
inactive: [3] -0.076 | [4] 0.063 | [6] 0.019 | [7] -0.013 | [9] -0.185

C11orf74 (UniProt Q86VG3)
inactive: [3] 0.011 | [5] -0.031 | [10] 0.038 | [7] 0.109

C4orf46 (UniProt Q504U0)
inactive: [5] -0.189

C12orf60 (UniProt Q5U649)
inactive: [3] 0.054 | [5] 0.063 | [7] -0.178

C14orf119 (UniProt Q9NWQ9)
inactive: [3] -0.126 | [4] 0.039 | [6] -0.163 | [7] 0.015 | [9] 0.055

C8orf88 (UniProt P0DMB2)
inactive: [2] 0.028 | [3] 0.038 | [4] 0.054 | [5] 0.058 | [6] -0.017 | [7] -0.004 | [8] -0.016 | [9] -0.095

C5orf30 (UniProt Q96GV9)
inactive: [2] -0.109 | [3] 0.06 | [4] 0.08 | [5] 0.001 | [6] -0.11 | [10] -0.036 | [7] -0.005 | [8] 0.103 | [9] -0.108

CARD6 (UniProt Q9BX69)
inactive: [3] -0.421 | [5] -0.053 | [7] 0.134

CAMSAP2 (UniProt Q08AD1)
inactive: [3] -0.012 | [4] 0.043 | [5] 0.065 | [6] -0.016 | [10] 0.081 | [7] 0.065 | [9] 0.06

CAMKMT (UniProt Q7Z624)
inactive: [1] -0.027 | [5] 0

C5orf34 (UniProt Q96MH7)
inactive: [5] 0.027 | [10] 0.049

C19orf57 (UniProt Q0VDD7)
inactive: [4] 0.17 | [5] 0.06 | [6] -0.135 | [9] -0.092

CA1 (UniProt E5RIF9)
inactive: [4] -0.099 | [6] -0.011 | [10] -0.098 | [9] -0.004

C12orf57 (UniProt Q99622)
inactive: [3] 0.076 | [5] 0.101 | [7] 0.04

Source: the supplement of paper PMC10849652
